These compounds were tested on larval zebrafish (assay: Neurotoxicity ranking of congeners (RYR binding, behavior, body burden)). Conditions: 1 = most potent.
With `Clc1ccc(-c2ccc(Cl)c(Cl)c2)c(Cl)c1` [PCB 66] the “Rank (overall neurotoxic potency)” value was 5. `Clc1ccc(-c2ccc(Cl)cc2Cl)cc1` [PCB 28] was tested, and the “Rank (overall neurotoxic potency)” value was 6. `Clc1cc(Cl)c(-c2cc(Cl)c(Cl)cc2Cl)cc1Cl` [PCB 153, 2,2',4,4',5,5'-Hexachlorobiphenyl] was tested, and the “Rank (overall neurotoxic potency)” value was 4. `Clc1cccc(-c2c(Cl)ccc(Cl)c2Cl)c1Cl` [PCB 84] was tested, and the “Rank (overall neurotoxic potency)” value was 3. `Clc1cc(Cl)c(-c2ccc(Cl)c(Cl)c2Cl)cc1Cl` [PCB 138] was tested, and the “Rank (overall neurotoxic potency)” value was 2. In the case of `Clc1ccc(Cl)c(-c2c(Cl)ccc(Cl)c2Cl)c1` [PCB 95, 2,2',3,5',6-pentachlorobiphenyl], the “Rank (overall neurotoxic potency)” value is reported as 1.

From publication PMC9582434, “Ryanodine receptor-active non-dioxin-like polychlorinated biphenyls cause neurobehavioral deficits in larval zebrafish” (Frontiers in Toxicology, 2022)
